Data as given in PubChem BioAssay AID1259308 (NCATS, 2017).
Test: 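Candidate targets for better recombinant protein yield in mammalian cells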 (primary screen). System: human HEK293 embryonic kidney cells stably expressing firefly luciferase (HEK-CMV-Luc2-Hygro). Reagents: single siRNA against human genes, 0.8 pmol siRNA per well. Timing: 72 h. Read-out: 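Reporter luminescence and viable-cell signal on separate replicate plates, given as percent of non-targeting control and median/MAD z-scores, plus per-cell luciferase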. Direction: total luciferase, z-score and total luciferase, % of control: higher = more reporter protein produced; luciferase per cell, z-score: higher = more reporter output per viable cell; viable cells, % of control: higher = more viable cells. Rule for the call: 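Active when the median/MAD z-score for overall luciferase is greater than 3; a gene was taken forward for validation with new siRNAs if at least two of its three siRNAs passed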. Meaning of the calls: active = raised luciferase; inactive = no rise.
This is a random part of about 59,000 deposited reagents. About 1,510 of them (2.6%) count as active. 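Calls use total luciferase alone and ignore viability, so some active siRNAs may act by altering cell number.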 A number with no mark means an inactive call. Reagents against one gene are numbered here.

gene | siRNA no. | total luciferase, z-score | total luciferase, % of control | luciferase per cell, z-score | viable cells, % of control
FAM13B | 1 | 2.31 | 128 | 1.53 | 95.5
FAM13B | 2 | -1.52 | 51.7 | -1.75 | 91.6
FAM13B | 3 | 0.669 | 95.2 | -0.248 | 114
PSENEN | 1 | 0.177 | 85.4 | -0.38 | 105
PSENEN | 2 | 0.18 | 85.5 | 0.187 | 90.9
PSENEN | 3 | -0.0411 | 81.1 | -0.187 | 95.2
EEA1 | 1 | -0.0107 | 81.7 | 0.0276 | 90.6
EEA1 | 2 | 0.205 | 86 | 0.0481 | 94.8
EEA1 | 3 | -0.221 | 77.5 | -0.495 | 98.7
CBX1 | 1 | 0.47 | 91.2 | 0.625 | 86.5
CBX1 | 2 | -0.526 | 71.4 | -0.83 | 99.3
CBX1 | 3 | 0.159 | 85.1 | 0.332 | 87.1
KDF1 | 1 | -0.41 | 73.7 | 0.36 | 74.9
KDF1 | 2 | 1.44 | 111 | 1.36 | 86.3
KDF1 | 3 | -0.61 | 69.7 | -0.0298 | 78.6
TSPAN33 | 1 | 1.11 | 104 | 1.53 | 77.7
TSPAN33 | 2 | -1.4 | 54.1 | -0.946 | 77.6
TSPAN33 | 3 | -1.78 | 46.4 | -1.9 | 85.6
SRGAP3 | 1 | 2.72 | 136 | 2.1 | 87.3
SRGAP3 | 2 | -0.637 | 69.2 | -0.0922 | 79.2
SRGAP3 | 3 | 0.31 | 88 | 0.329 | 90.2
PACSIN1 | 1 | 4.71 (active) | 176 | 3.72 | 73.6
PACSIN1 | 2 | -0.421 | 73.5 | 0.29 | 76.1
PACSIN1 | 3 | 1.64 | 115 | 2.86 | 60.3

Individual results from above.
For “luciferase per cell, z-score”, PACSIN1 #2 has 0.29
Entry of TSPAN33 #3 under “total luciferase, % of control”: 46.4
Result of SRGAP3 #3 under “total luciferase, % of control”: 88
